The list shows a part of the results. This data set is noisy: repeats of one test often differ as much as different tests do.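 Human kidney-derived cells stably carry a construct in which eight TEAD-binding elements drive luciferase, measured by luminescence in a drug-repurposing library screen. A hit is any compound whose signal exceeds the plate mean by more than five robust Z scores.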

For 27 compounds, TEAD-luciferase reporter activity results are on record in the supplement of paper PMC10735217.

This assay deals with HEK293A TEAD-LUC reporter. The experiment in a line: TEAD-luciferase reporter activity (YAP activation), robust Z score vs plate; higher = stronger YAP/TEAD activation. To be noted: 24 h. A general note: In a reporter assay the amount or activity of a reporter protein is the signal.

For the compound `COc1ccc(N(Cc2cccnc2)c2cccc(C(=O)NC3CCCC3)c2)cc1OC1CCCC1`, the TEAD-luciferase reporter activity runs as follows: (compound concentration: 200 nM) inactive: -0.459; (compound concentration: 2 uM) inactive: -0.482; (compound concentration: 10 uM) inactive: 0.219.
For `CC1COC2=C1C(=O)C(=O)c1c2ccc2c1CCCC2(C)C` (stereo unspecified) [Cryptotanshi] the same measures were inactive: -0.888, inactive: -1.12 and active: 7.9.
For `CCCC(CCC)C(=O)Nc1ccn([C@@H]2O[C@H](CO)[C@@H](O)C2(F)F)c(=O)n1` the same measures were inactive: -2.45, inactive: -0.765 and inactive: -0.975.
Consider `CCO[C@H](COc1ccc(C(F)(F)F)cc1)CSc1ccc(OCC(=O)O)c(C)c1`, for which the TEAD-luciferase reporter activity by setting is: (compound concentration: 200 nM) inactive: 1.44; (compound concentration: 2 uM) inactive: -1.6; (compound concentration: 10 uM) inactive: -0.502.
For `C[C@]12CC[C@@H]3c4ccc(O)cc4CC[C@H]3[C@@H]1C[C@@H](O)[C@@H]2O` [estriol, Jenapharm] the same measures were inactive: -0.92, inactive: -2 and inactive: 2.69.
Consider `CCCCCCCCCCCCCCCCOc1nc2ccc(C)cc2c(=O)o1` [Cetilistat], for which the TEAD-luciferase reporter activity runs as follows: (compound concentration: 200 nM) inactive: 0.252; (compound concentration: 10 uM) inactive: -0.233.
`CSCC[C@H](NC(=O)C(CS)Cc1ccccc1C)C(=O)O` (stereo partly specified): the TEAD-luciferase reporter activity is, setting by setting: (compound concentration: 200 nM) inactive: -1.49; (compound concentration: 2 uM) inactive: 0.738; (compound concentration: 10 uM) inactive: 0.52.
Taken in the same sequence, the figures for `CN(C(=O)C(Cl)Cl)c1ccc(O)cc1` were inactive: 4.72, inactive: -0.577 and inactive: -0.338.
For `COc1ccc(Cc2cccc(-c3c(OC(C)=O)c4ccc(Cl)cc4[nH]c3=O)c2)cc1` the same measures were inactive: -0.0756, inactive: 2.36 and inactive: 3.26.
As for `CC(C)CCC[C@@H](C)[C@H]1CC(=O)C2=C3CC[C@H]4C[C@@H](O)CC[C@]4(C)C3CC[C@@]21C` (stereo partly specified) [colestolone], the TEAD-luciferase reporter activity was inactive: -0.672 (compound concentration: 200 nM), inactive: 0.382 (compound concentration: 2 uM) and active: 8.4 (compound concentration: 10 uM).
`Nc1ncccc1-c1cc(Cc2ccc(COc3ccccn3)cc2)no1`: the TEAD-luciferase reporter activity is inactive: -0.948 (compound concentration: 200 nM), inactive: -0.377 (compound concentration: 2 uM) and inactive: -0.782 (compound concentration: 10 uM).
For `CO[C@@]1(NC(=O)C2SC(=C(C(N)=O)C(=O)O)S2)C(=O)N2C(C(=O)O)=C(CSc3nnnn3C)CS[C@@H]21` (stereo partly specified) [cefotetan] the same measures were inactive: -0.652, inactive: -0.0441 and inactive: 1.59.
As for `O=C1c2ccccc2C(=O)C1c1ccc(F)cc1`, the TEAD-luciferase reporter activity was inactive: -1.45 (compound concentration: 200 nM), inactive: 1.26 (compound concentration: 2 uM) and inactive: -0.771 (compound concentration: 10 uM).
For the compound `O=C(O)c1cccc(-c2noc(-c3ccccc3F)n2)c1` [ataluren], the TEAD-luciferase reporter activity is inactive: 0.443 (compound concentration: 200 nM), inactive: -2.76 (compound concentration: 2 uM) and inactive: -3.16 (compound concentration: 10 uM).
Take `C[C@@H](O)[C@H]1C(=O)N2C(C(=O)[O-])=C(S[C@@H]3CN[C@H](C(=O)Nc4cccc(C(=O)[O-])c4)C3)[C@H](C)[C@H]12` [Ertapenem]: the TEAD-luciferase reporter activity by setting is: (compound concentration: 200 nM) inactive: 0.665; (compound concentration: 10 uM) inactive: 0.268.
For `C[C@@H](O)[C@H]1C(=O)N2C(C(=O)[O-])=C(S[C@@H]3CN[C@H](C(=O)Nc4cccc(C(=O)[O-])c4)C3)[C@H](C)[C@H]12` [Ertapenem disodium], under “compound concentration: 2 uM”, the TEAD-luciferase reporter activity was inactive: 1.44.
For the compound `Cc1ccsc1-c1ccc(CCC(=O)O)cc1`, the TEAD-luciferase reporter activity (compound concentration: 200 nM) was inactive: -0.239, the TEAD-luciferase reporter activity (compound concentration: 2 uM) is inactive: -0.561 and the TEAD-luciferase reporter activity (compound concentration: 10 uM) is inactive: 3.72.
With `Clc1ccc2c(c1)C(N1CCNCC1)=Nc1ccccc1O2`, the TEAD-luciferase reporter activity reads like this: (compound concentration: 200 nM) inactive: -0.251; (compound concentration: 10 uM) inactive: 1.63.
Regarding `Clc1ccc2c(c1)C(N1CCNCC1)=Nc1ccccc1O2` [amoxapine], under “compound concentration: 2 uM”, the TEAD-luciferase reporter activity was inactive: -1.1.
As for `CC(=O)NCCCNC(=O)Nc1c(C)cccc1C`, the TEAD-luciferase reporter activity runs as follows: (compound concentration: 200 nM) active: 5.81; (compound concentration: 2 uM) inactive: -1.49; (compound concentration: 10 uM) inactive: -0.000612.
For `Cc1cccc(Oc2cnc(=O)[nH]c2)c1` [Tolimidone] the same measures were inactive: 0.101, inactive: -1.71 and inactive: -0.074.
Turning to `Cn1c(=O)c2c(ncn2CCCN2CCC(OC(c3ccccc3)c3ccccc3)CC2)n(C)c1=O`, the TEAD-luciferase reporter activity was inactive: -0.942 (compound concentration: 200 nM), inactive: -1.93 (compound concentration: 2 uM) and inactive: 3.34 (compound concentration: 10 uM).
Taken in the same sequence, the figures for `OC[C@@H]1O[C@@H](OC[C@@H]2O[C@@H](O[C@@H]3[C@H](O)[C@@H](CO)OC(O)[C@@H]3O)[C@@H](O)[C@H](O[C@@H]3O[C@@H](CO)[C@H](O)[C@@H](O)[C@@H]3O)[C@H]2O)[C@@H](O)[C@H](O)[C@H]1O` (stereo partly specified) were inactive: -1.22, inactive: -0.291 and inactive: 0.313.
On to `CC(C)(C(=O)c1cccnc1)c1cccnc1`, for which the TEAD-luciferase reporter activity (compound concentration: 200 nM) was inactive: -2.59 and the TEAD-luciferase reporter activity (compound concentration: 10 uM) is inactive: 0.26.
Consider `CC(C)(C(=O)c1cccnc1)c1cccnc1` [Metyrapone], for which the TEAD-luciferase reporter activity (compound concentration: 2 uM) is inactive: -0.46.
Take `CC(C)CC(=O)Nc1cncc(-c2ccc3[nH]nc(-c4nc5c(-c6cccc(F)c6)cncc5[nH]4)c3c2)c1`: the TEAD-luciferase reporter activity is inactive: 3.03 (compound concentration: 200 nM), active: 22.7 (compound concentration: 2 uM) and active: 9.85 (compound concentration: 10 uM).
For `Cc1ccc2c(N3CCN(CCc4cccc(N5CCNC5=O)c4)CC3)cccc2n1` the same measures were inactive: -2.2, inactive: -0.402 and inactive: -1.15.
